About 1,800 (2.3%) of roughly 78,000 compounds were called active. The shares of active, inactive and inconclusive entries below differ from those in the screen. Rule as the data show it: active = inhibition above about 30%; inconclusive = mostly about 10% to 28%; inactive = weaker than that.
molecular target: Interleukin-1 receptor-like 1 (Homo sapiens) (UniProt Q01638); test: blocks human ST2 binding to IL-33, primary screen, biochemical, AlphaLISA (AID 1259354); conditions: AlphaLISA ST2-Fc/biotin-IL-33 interaction, 1 h; at 17 µM, stronger effect = higher value

The chains behind the UniProt entries cited, without tags or fusion partners. Where a name states a change or a piece, a line headed by the entry shows the natural chain unless it says otherwise.
UniProt Q01638: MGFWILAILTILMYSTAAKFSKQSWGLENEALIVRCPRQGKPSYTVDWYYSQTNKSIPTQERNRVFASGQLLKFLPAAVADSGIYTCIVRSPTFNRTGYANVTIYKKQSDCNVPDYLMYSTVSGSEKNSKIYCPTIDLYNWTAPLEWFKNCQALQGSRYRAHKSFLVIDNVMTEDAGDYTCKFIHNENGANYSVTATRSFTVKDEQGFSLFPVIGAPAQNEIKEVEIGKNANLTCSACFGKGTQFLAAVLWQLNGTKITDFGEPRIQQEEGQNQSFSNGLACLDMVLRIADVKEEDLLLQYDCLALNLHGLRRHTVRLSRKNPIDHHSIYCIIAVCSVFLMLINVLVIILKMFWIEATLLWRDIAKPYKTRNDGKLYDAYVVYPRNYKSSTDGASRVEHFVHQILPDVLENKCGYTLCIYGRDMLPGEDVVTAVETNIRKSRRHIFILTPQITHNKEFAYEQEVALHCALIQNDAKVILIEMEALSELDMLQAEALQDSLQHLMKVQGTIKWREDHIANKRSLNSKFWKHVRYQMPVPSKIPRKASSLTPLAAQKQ

| Structure (SMILES) | inhibition |
| --- | --- |
| CCCc1[nH]nc2c1C(c1cn[nH]c1-c1ccc(F)cc1)C(C#N)=C(N)O2 (stereo not drawn) | inconclusive: 24% |
| O=C1CC(c2ccccc2)CC2=C1C(c1ccncc1)Nc1ccccc1N2 (stereo not drawn) | inconclusive: 13% |
| O=C1NC(=O)c2cc(-c3ccccc3)ccc21 | inconclusive: 14% |
| On1c(-c2ccccc2)nc2c1CCc1nonc1-2 | inactive |
| O=C(COc1ccccc1)N(Cc1ccccc1)c1cccc([N+](=O)[O-])c1 | inconclusive: 10% |
| CCNC(=O)N[C@H]1[C@H](O)[C@@H](Sc2ccccc2)[C@@H]2OC[C@H]1O2 | inconclusive: 15% |
| COc1ccc(OCCn2c(NC(C)=O)nc3ccccc32)cc1 | inactive |
| Cc1sc2ncnc(Sc3nnnn3-c3ccccc3)c2c1C | active: 44% |
| FC(F)(F)CCc1ccnc(N[C@H]2COC[C@@H]2N2CCCCC2)n1 | inconclusive: 17% |
| CCOc1cc(-c2c(C#N)c(N)n3c(nc4ccccc43)c2C#N)ccc1OC | active: 37% |
| Cc1ccc(CCNC(=O)c2ccc(N3C(=O)NC4CC3(C)Oc3ccccc34)cc2)cc1 (stereo not drawn) | inconclusive: 10% |
| COc1cc(C(=O)Nc2ccc(S(N)(=O)=O)cc2)c(Br)c(OC)c1OC | inconclusive: 17% |
| Nc1cc2c(cc1C(=O)c1ccc(Br)cc1)OCCO2 | inconclusive: 29% |
| CN1C[C@@H](NS(=O)(=O)c2cccc(F)c2)C[C@H]1c1nc(-c2ccc(Cl)cc2)no1 | inconclusive: 17% |
| CCC(Nc1cccc(OC)c1)C(=O)N(C)Cc1cccc2cccnc12 (stereo not drawn) | inconclusive: 18% |
| O=C(c1ccc(Cl)cc1Cl)N1CCN(c2ccc([N+](=O)[O-])cc2)CC1 | inactive |
| O=C(CSc1nnc(Cc2cc(=O)[nH]c(=O)[nH]2)n1-c1ccccc1)N1CCCCC1 | inconclusive: 17% |
| CC1CC[C@]2(C(=O)O)CC[C@]3(C(=O)O)C(=CCC4[C@@]5(C)CC[C@H](O[C@@H]6O[C@H](CO)[C@@H](O)[C@H](O)[C@H]6O)C(C)(C)C5CC[C@]43C)C2C1C (stereo partly drawn) | inactive |
| Cc1c(N)cc(N)cc1C(=O)O | inconclusive: 11% |
| Cc1ccc(C2CC(c3ccc(C(C)C)cc3)n3ncnc3N2)cc1 (stereo not drawn) | inactive |

An excerpt of these results, with tabs.
Structure (SMILES)	inhibition
FC(F)(F)CCc1ccnc(N[C@H]2COC[C@@H]2N2CCCCC2)n1	inconclusive: 17%
Cc1ccc(CCNC(=O)c2ccc(N3C(=O)NC4CC3(C)Oc3ccccc34)cc2)cc1 (stereo not drawn)	inconclusive: 10%
CN1C[C@@H](NS(=O)(=O)c2cccc(F)c2)C[C@H]1c1nc(-c2ccc(Cl)cc2)no1	inconclusive: 17%
CC1CC[C@]2(C(=O)O)CC[C@]3(C(=O)O)C(=CCC4[C@@]5(C)CC[C@H](O[C@@H]6O[C@H](CO)[C@@H](O)[C@H](O)[C@H]6O)C(C)(C)C5CC[C@]43C)C2C1C (stereo partly drawn)	inactive

(further entries)

| Structure (SMILES) | inhibition |
| --- | --- |
| CC1=NN(c2ccccc2)C(=O)/C1=C/c1cccc(C(=O)O)c1 | inactive |
| CC1=C(C)CC(C(=O)c2ccccc2)C(C(=O)O)C1 (stereo not drawn) | inconclusive: 14% |
| C=C/C(C)=C/[C@@]1(C)SC(=O)C(C)=C1O | inconclusive: 22% |
| O=C(NCCCn1ccnc1)c1cc2n(n1)C(C(F)(F)F)CC(c1ccc(Cl)cc1)N2 (stereo not drawn) | inconclusive: 16% |
| CCn1c(C2CCN(C(=O)c3ccccc3-n3cncn3)CC2)nn(C)c1=O | inactive |
| C=CCn1cnc2c(cnn2-c2ccc(Cl)cc2)c1=O | inconclusive: 14% |
| Cc1ccc(C)c(NS(=O)(=O)c2ccc(NS(=O)(=O)c3ccc(F)cc3)cc2)c1 | inactive |
| CC[C@H]1CN(C(=O)c2ccnc(Cl)c2)CC[C@H]1CC(=O)NCc1ccc2c(c1)OCO2 | inconclusive: 11% |
| O=C(NCCSc1c(-c2ccc(Br)cc2)[nH]c2ccccc12)c1ccco1 | inactive |
| CCN(CC)C(=O)C1CCCN(Cc2cccc(OC)c2OC)C1 (stereo not drawn) | inconclusive: 11% |
| O=C(O)c1cccnc1CN1CCCC1c1ccco1 (stereo not drawn) | inconclusive: 21% |
| CC(CC(=O)N1CCC(Cc2ccccc2)CC1)c1ccccc1 (stereo not drawn) | inactive |
| O=C(Nc1nnc(N=Cc2ccc(Br)s2)s1)c1cccs1 | inactive |
| CN1CCCN(C(=O)[C@@H]2C[C@@H](Sc3nc4ccccc4[nH]3)CN2C2C3CC4CC(C3)CC2C4)CC1 (stereo partly drawn) | inconclusive: 17% |
| O=C(C1CC1)N1CCc2cc(Br)cc(S(=O)(=O)NCc3ccc4c(c3)OCO4)c21 | active: 32% |
| CCc1ccc(NC(=O)C2CCN(c3ccc(-c4cccs4)nn3)CC2)cc1 | inconclusive: 10% |
| COc1cc2c(C(=O)N3CCCCC3)cn(C)c(=O)c2cc1OC | inconclusive: 12% |
| O=C1NC(=Nc2ccccc2)S/C1=C/c1ccc(-c2cccc(C(=O)O)c2)o1 | inconclusive: 14% |
| CCOC(=O)C1CCCN(C(CC)C(=O)N2CCCc3c2c(=O)oc2ccc(O)cc32)C1 (stereo not drawn) | inconclusive: 11% |
| Cc1nsc(NC(=O)NCC(c2ccccc2)c2ccccc2)n1 | inconclusive: 16% |

| Structure (SMILES) | inhibition |
| --- | --- |
| Cc1nc(Cc2ccc(-n3ccnc3-c3nccn3C)cc2)n[nH]1 | inactive |
| N#Cc1c(-c2ccccc2)cc(-c2cccs2)nc1Br | inactive |
| Cc1ccc(CN2C[C@H](O)C[C@H]2c2nc(-c3ccc(F)cc3)no2)cc1 | inconclusive: 16% |
| COc1cc(SC)ccc1C(=O)N1CCN(c2ccc([N+](=O)[O-])cc2)CC1 | inconclusive: 22% |
| CC1=C(C(=O)Nc2cccc(C)n2)C(c2cccc([N+](=O)[O-])c2)C2=C(CC(C)(C)CC2=O)N1 (stereo not drawn) | inactive |
| CCC(Sc1nncn1C)C(=O)Nc1nnc(C)s1 (stereo not drawn) | inactive |
| O=S(=O)(Nc1cc(Cl)c(O)c(Cl)c1Cl)c1ccccc1 | inconclusive: 13% |
| CCCCOc1ccc(C(=O)Nc2c3c(nn2-c2ccccc2C)CS(=O)C3)cc1 (stereo not drawn) | inactive |
| Cc1ccc(-c2noc([C@@H]3C[C@H](NS(=O)(=O)c4ccc(F)cc4)CN3C)n2)cc1 | inconclusive: 10% |
| COCCC(=O)N[C@H]1C[C@@H](c2nc(-c3ccncc3)no2)N(C)C1 | inconclusive: 16% |
| O[C@@H]1C[C@@H](c2nc(-c3ccc(F)cc3)no2)N(Cc2cc3ccccc3o2)C1 | inconclusive: 26% |
| Cc1nc(-c2ccccc2)nc(Cl)c1CC(=O)O | inactive |
| Cc1cccc(NC(=O)CSc2c3c(nc4ccccc24)CCC3)n1 | inconclusive: 15% |
| Cc1nnsc1CN(C)C(=O)c1ccc(C2CCCN2)s1 (stereo not drawn) | inconclusive: 13% |
| CC(=O)N1N=C(c2ccccc2)CC1c1ccc(N(C)C)cc1 (stereo not drawn) | inconclusive: 24% |
| CCC(=O)N1CCc2cc(Br)cc(S(=O)(=O)NC3CCCCCC3)c21 | inactive |
| C(=C\c1ccccc1)/CN1CCN(Cc2nc(-c3ccc4c(c3)OCO4)no2)CC1 | inconclusive: 11% |
| CCOc1cccc(C(=O)Nc2ccc(C)cc2[N+](=O)[O-])c1 | inactive |
